# Experimental data taken from PubChem BioAssay AID1487 (National Center for Advancing Translational Sciences (NCATS), 2009).
# Where “and” joins values, the source holds several entries; their conditions need not be identical. Identical values can stand only once. The list shows a part of the results. Further columns of the screen follow, without active or inactive calls. The list favours compounds with an active or inconclusive main result. The note in brackets gives the kind of curve behind each potency; many fits are weak.
# Experiment: qHTS Assay for Modulators of Lamin A Splicing
# Conditions: HeLa LMNA splicing GFP/RFP minigene ratio, 48 h
# In short: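 Read-out is the ratio of GFP to DsRed2 object intensity, acquired by 488 nm laser-scanning cytometry on HeLa lamin A-EGFP minigene reporter cells. Compound incubation 48 hrs at 37 °C in Opti-MEM with 2% FBS; DMSO 0.5% final.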
# [1] = measured here: GFP splicing reporter channel
# [2] = measured here: RFP viability control channel
Compound,AC50 [1],AC50 [2]
Cc1onc(-c2ccccc2Cl)c1C(=O)Nc1ccc(F)c(F)c1,"35.5 µM [rising, single point]",
Cn1c(N2CCOCC2)c(/C=N/O)c2ccccc21,,"0.0355 µM [rising, full curve, poor fit]"
Cc1cc(C)cc(NC(=O)c2ccc(CSc3nnnn3C)cc2)c1,"35.5 µM [rising, single point]","35.5 µM [rising, single point]"
CCOC(=O)C1CCN(S(=O)(=O)c2ccc(CC)cc2)CC1,,"5.62 µM [rising, single point]"
CC(=O)Nc1ccc(NC(=O)C2CCCN2C(=O)Nc2ccccc2[N+](=O)[O-])cc1 (stereo unspecified),"7.94 µM [rising, partial curve]","7.08 µM [rising, partial curve]"
Clc1ccc(Cn2ncc3c(NCc4ccccc4)ncnc32)cc1,,"12.6 µM [rising, partial curve]"
Cc1ccccc1C(OCCN(C)C)c1ccccc1 (stereo unspecified),,"44.7 nM [falling, full curve, poor fit] and 6.31 µM [falling, single point]"
O=C(NC(=S)Nc1ccc(S(=O)(=O)N2CCCC2)cc1)c1cccs1,"12.6 µM [rising, single point]","12.6 µM [rising, partial curve]"
CCN(c1ccccc1)S(=O)(=O)c1cc(C(=O)Nc2cccc(Cl)c2)ccc1F,,"22.4 µM [rising, single point]"
Cc1cc(SCC(=O)OC/C(O)=C(\C#N)c2nc3ccccc3[nH]2)c(C)cc1Br,"12.6 µM [falling, partial curve, poor fit]","14.1 µM [falling, partial curve, poor fit]"
Cc1cc(Cl)c(S(=O)(=O)NC2CCCCC2)cc1OCC(=O)Nc1nncs1,"4.47 µM [rising, single point]","3.55 µM [rising, full curve]"
CCOC(=O)c1cc(NC(=O)Nc2nccs2)c(C)nc1C,"17.8 µM [rising, partial curve, poor fit]",
Cc1cc(C)c(NS(=O)(=O)c2ccc3c(c2)NC(=O)CCS3)c(C)c1,"0.355 µM [rising, single point]",
Cc1c(I)c(=O)n(-c2ccccc2)n1C,"12.6 µM [falling, partial curve, poor fit]",
Cc1cccc(CNc2ccnc(-c3ccccc3C(F)(F)F)n2)c1,"15.8 µM [falling, partial curve]","14.1 µM [falling, partial curve]"
